Assay results published in US7326680B1, “Uterine contraction inhibitors” (Shionogi & Co., Ltd., priority 1999, dated 2008).
At least one compound was matched to its structure with a doubt left. Peptide text beside a SMILES is read from it.

Tested on: uterine strips
Experiment: Stimulation of contraction of uterine strips from rats not treated with estrogen
Format: cell-based, rat
Settings: 1 nM oxytocin, 1 μM PGF2α or 10 nM bradykinin
Protocol: In another experiment, rats without injection of 17β-estradiol were used. The effect of 100 nM AM on uterine contraction induced by 10 nM bradykinin, 1 nM oxytocin, or 1 μM PGF2α was tested in the presence or absence of 1 μM AM[22-52] or 1 μM CGRP[8-37].

NC(N)=NCCC[C@H](NC(=O)[C@H](Cc1ccccc1)NC(=O)[C@@H]1CCCN1C(=O)[C@H](CO)NC(=O)[C@H](Cc1ccccc1)NC(=O)CNC(=O)[C@@H]1CCCN1C(=O)[C@@H]1CCCN1C(=O)[C@@H](N)CCCN=C(N)N)C(=O)O [bradykinin] (H-RPPGFSPFR-OH)
stimulation of uterine contraction: significantly stimulated contraction
